{"source": "PubChem BioAssay AID686938 – Drosophila RNAi Screening Center – 2013", "purpose": "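Fly genes required for calcium entry once internal stores are emptied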 (primary screen)", "system": "Drosophila S2R+ cells", "knock-down reagent": "long dsRNA against Drosophila genes, about 0.25 µg dsRNA per well, roughly 10,000 cells", "timing": "5 days of knock-down before the calcium assay", "conditions": "thapsigargin (SERCA pump blocker) to empty calcium stores; entry signal taken 4 min after adding it", "detection": "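Duplicate raw fluo-4 intensities per well from a plate reader, at rest and four minutes after thapsigargin emptied calcium stores; entry-to-rest ratio filled for only some wells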", "reading the numbers": "calcium entry signal: higher = stronger calcium signal after store depletion; resting calcium signal: higher = higher resting calcium signal", "call rule": "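Called when the plate z-score of the entry-to-rest ratio, mean of duplicates, falls below −3; wells with low overall dye signal (Fmax z below −2) or more than five off-targets excluded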", "calls": "active = strongly reduced calcium entry; inactive = no strong reduction", "note": "The screen tested about 23,000 reagents; below is a random part of those with a known target gene and a result. Over the whole deposit, 75 (0.33%) were called active. 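Raw plate signals without normalisation; calls rest on plate z-scores that were not deposited; ratio present for only 364 wells.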 Entries without a mark were called inactive. Not given: the dose of the treatment."}
{"target gene": "wash", "dsRNA": "DRSC06302", "calcium entry signal, replicate 1 (fluorescence units)": 2.65e7, "calcium entry signal, replicate 2 (fluorescence units)": 2.67e7, "resting calcium signal, replicate 1 (fluorescence units)": 1.39e7, "resting calcium signal, replicate 2 (fluorescence units)": 1.20e7}
{"target gene": "cher", "dsRNA": "DRSC16924", "calcium entry signal, replicate 1 (fluorescence units)": 3.83e7, "calcium entry signal, replicate 2 (fluorescence units)": 3.51e7, "resting calcium signal, replicate 1 (fluorescence units)": 1.91e7, "resting calcium signal, replicate 2 (fluorescence units)": 1.61e7}
{"target gene": "BigH1", "dsRNA": "DRSC15491", "calcium entry signal, replicate 1 (fluorescence units)": 2.87e7, "calcium entry signal, replicate 2 (fluorescence units)": 3.86e7, "resting calcium signal, replicate 1 (fluorescence units)": 1.31e7, "resting calcium signal, replicate 2 (fluorescence units)": 1.73e7}
{"target gene": "und", "dsRNA": "DRSC03629", "calcium entry signal, replicate 1 (fluorescence units)": 4.35e7, "resting calcium signal, replicate 1 (fluorescence units)": 2.15e7}
{"target gene": "nej", "dsRNA": "DRSC18006", "calcium entry signal, replicate 1 (fluorescence units)": 2.74e7, "calcium entry signal, replicate 2 (fluorescence units)": 3.46e7, "resting calcium signal, replicate 1 (fluorescence units)": 1.58e7, "resting calcium signal, replicate 2 (fluorescence units)": 1.91e7}
{"target gene": "nej", "dsRNA": "DRSC18801", "calcium entry signal, replicate 1 (fluorescence units)": 2.31e7, "calcium entry signal, replicate 2 (fluorescence units)": 2.42e7, "resting calcium signal, replicate 1 (fluorescence units)": 1.21e7, "resting calcium signal, replicate 2 (fluorescence units)": 1.32e7}

Records listed so far whose target name starts with N or n:
{"target gene": "nej", "dsRNA": "DRSC18006", "calcium entry signal, replicate 1 (fluorescence units)": 2.74e7, "calcium entry signal, replicate 2 (fluorescence units)": 3.46e7, "resting calcium signal, replicate 1 (fluorescence units)": 1.58e7, "resting calcium signal, replicate 2 (fluorescence units)": 1.91e7}
{"target gene": "nej", "dsRNA": "DRSC18801", "calcium entry signal, replicate 1 (fluorescence units)": 2.31e7, "calcium entry signal, replicate 2 (fluorescence units)": 2.42e7, "resting calcium signal, replicate 1 (fluorescence units)": 1.21e7, "resting calcium signal, replicate 2 (fluorescence units)": 1.32e7}

Next results follow:
{"target gene": "E(spl)mgamma-HLH", "dsRNA": "DRSC16699", "calcium entry signal, replicate 1 (fluorescence units)": 5.43e7, "calcium entry signal, replicate 2 (fluorescence units)": 4.50e7, "resting calcium signal, replicate 1 (fluorescence units)": 2.61e7, "resting calcium signal, replicate 2 (fluorescence units)": 1.68e7}
{"target gene": "Lcch3", "dsRNA": "DRSC22175", "calcium entry signal, replicate 1 (fluorescence units)": 3.12e7, "calcium entry signal, replicate 2 (fluorescence units)": 3.98e7, "resting calcium signal, replicate 1 (fluorescence units)": 1.71e7, "resting calcium signal, replicate 2 (fluorescence units)": 2.11e7}
{"target gene": "CG9021", "dsRNA": "DRSC03128", "calcium entry signal, replicate 1 (fluorescence units)": 4.27e7, "resting calcium signal, replicate 1 (fluorescence units)": 2.32e7}
{"target gene": "Sin3A", "dsRNA": "DRSC07552", "calcium entry signal, replicate 1 (fluorescence units)": 1.82e7, "calcium entry signal, replicate 2 (fluorescence units)": 2.61e7, "resting calcium signal, replicate 1 (fluorescence units)": 1.08e7, "resting calcium signal, replicate 2 (fluorescence units)": 1.41e7}
{"target gene": "sov", "dsRNA": "DRSC17930", "calcium entry signal, replicate 1 (fluorescence units)": 3.53e7, "calcium entry signal, replicate 2 (fluorescence units)": 3.85e7, "resting calcium signal, replicate 1 (fluorescence units)": 1.65e7, "resting calcium signal, replicate 2 (fluorescence units)": 1.81e7}
{"target gene": "CG16786", "dsRNA": "DRSC04281", "calcium entry signal, replicate 1 (fluorescence units)": 3.13e7, "calcium entry signal, replicate 2 (fluorescence units)": 3.83e7, "resting calcium signal, replicate 1 (fluorescence units)": 1.76e7, "resting calcium signal, replicate 2 (fluorescence units)": 1.78e7}
